Reference: publication PMC10063658
Construct, isoform or probe ends are uncertain for at least one entry. For some assays here: Results from cells or extracts need not show a direct contact. For some assays here: Negatives hold for the conditions tested. For some assays here: Tags and fusion partners may be left off the protein sequences shown. For some assays here: Weaker means in comparison with the reference protein, sequence or condition of that experiment. For some assays here: At least one verdict rests on a figure or table, not on a statement of the authors.

Chains of the proteins cited; added tags and fusions are not shown. Lines headed by an entry give the natural chain unless they say otherwise; changes in a name come on top.
UniProt P49312: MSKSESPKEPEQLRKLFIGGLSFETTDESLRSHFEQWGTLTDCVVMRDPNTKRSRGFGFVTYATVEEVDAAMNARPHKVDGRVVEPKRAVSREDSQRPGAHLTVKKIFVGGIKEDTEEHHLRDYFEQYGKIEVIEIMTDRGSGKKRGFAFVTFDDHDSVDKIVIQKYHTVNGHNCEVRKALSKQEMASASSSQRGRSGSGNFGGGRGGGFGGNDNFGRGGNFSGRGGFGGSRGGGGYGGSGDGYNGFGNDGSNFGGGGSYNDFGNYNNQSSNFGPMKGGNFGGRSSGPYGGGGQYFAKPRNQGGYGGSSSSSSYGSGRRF
UniProt O88569: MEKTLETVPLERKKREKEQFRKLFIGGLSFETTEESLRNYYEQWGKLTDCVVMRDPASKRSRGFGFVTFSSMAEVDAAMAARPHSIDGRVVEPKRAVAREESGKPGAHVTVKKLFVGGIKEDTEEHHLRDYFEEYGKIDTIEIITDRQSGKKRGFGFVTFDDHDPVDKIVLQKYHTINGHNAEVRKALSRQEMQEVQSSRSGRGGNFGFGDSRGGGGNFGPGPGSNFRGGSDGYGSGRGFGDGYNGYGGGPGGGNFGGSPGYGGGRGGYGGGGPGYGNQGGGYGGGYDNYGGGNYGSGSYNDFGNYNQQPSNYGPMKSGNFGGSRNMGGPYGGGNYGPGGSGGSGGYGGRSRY

Tests used:
hnRNP H1 (mouse) = biological target: T1, hnRNP H1 (mouse) (UniProt O35737); assay: EMSA; conditions: EMSA: BersinBio RNA-EMSA kit, 12.5 nM biotin-RNA, 200 ng protein, recombinant protein, protein details: His
T1 sequence (looked up, limits assumed): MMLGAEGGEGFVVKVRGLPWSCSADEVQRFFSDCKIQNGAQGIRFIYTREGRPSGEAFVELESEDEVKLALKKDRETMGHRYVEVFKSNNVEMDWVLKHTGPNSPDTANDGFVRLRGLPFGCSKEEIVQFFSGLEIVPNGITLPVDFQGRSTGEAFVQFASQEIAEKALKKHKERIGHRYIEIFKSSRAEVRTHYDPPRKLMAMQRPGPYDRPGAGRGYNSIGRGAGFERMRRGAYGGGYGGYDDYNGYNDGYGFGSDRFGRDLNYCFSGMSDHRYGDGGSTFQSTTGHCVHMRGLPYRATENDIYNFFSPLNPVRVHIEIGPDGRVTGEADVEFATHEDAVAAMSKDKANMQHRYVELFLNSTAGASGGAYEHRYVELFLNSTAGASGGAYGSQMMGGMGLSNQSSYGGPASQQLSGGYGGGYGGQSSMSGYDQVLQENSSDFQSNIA

[1] = biological target: T2, hnRNP F (B cell nuclear extract) (mouse) (UniProt Q9Z2X1); assay: pull-down; conditions: Pull-down: 20 mM Tris-HCl pH 7.5, 200 mM NaCl, 6 mM EDTA, 5 mM KF, 5 mM beta-glycerophosphate, 4 h at 4 C, 100 ug nuclear extract, protein in an extract
T2 sequence (looked up, limits assumed): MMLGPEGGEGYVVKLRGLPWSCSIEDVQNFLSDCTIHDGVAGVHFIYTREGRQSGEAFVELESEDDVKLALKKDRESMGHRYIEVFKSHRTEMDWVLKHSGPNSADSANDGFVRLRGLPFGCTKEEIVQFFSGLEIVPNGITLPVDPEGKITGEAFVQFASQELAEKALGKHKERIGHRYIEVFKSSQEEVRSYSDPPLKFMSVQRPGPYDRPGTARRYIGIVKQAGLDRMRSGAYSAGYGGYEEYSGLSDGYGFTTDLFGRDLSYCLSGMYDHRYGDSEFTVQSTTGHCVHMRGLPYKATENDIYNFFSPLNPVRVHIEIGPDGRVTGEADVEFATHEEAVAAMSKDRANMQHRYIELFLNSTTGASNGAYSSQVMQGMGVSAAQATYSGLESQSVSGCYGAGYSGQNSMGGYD

hnRNP A1 (mouse) = hnRNP A1 (mouse) (UniProt P49312); assay: pull-down; conditions: Pull-down: 20 mM Tris-HCl pH 7.5, 200 mM NaCl, 6 mM EDTA, 5 mM KF, 5 mM beta-glycerophosphate, 4 h at 4 C, 100 ug nuclear extract, protein in an extract
hnRNP A2B1 (mouse) = hnRNP A2B1 (mouse) (UniProt O88569); assay: pull-down; conditions: Pull-down: 20 mM Tris-HCl pH 7.5, 200 mM NaCl, 6 mM EDTA, 5 mM KF, 5 mM beta-glycerophosphate, 4 h at 4 C, 100 ug nuclear extract, protein in an extract
[2] = label: 5' biotin (unlabeled as competitor)
[3] = not significantly reduced, label: 5' biotin (unlabeled as competitor)

Question: Does UCAGGAGAGGAAAGGGAGGGAGGGU [I7-WT] bind (hnRNP H1 (mouse); label: 5' biotin)?
Answer: Result: binds

Question: Does UCAGGAGAGGAAAGGGAGGGAGGGU [I7-WT] bind ([1]; label: 5' biotin)?
Answer: Result: binds

Question: Does UCAGAAGAGAAAAGAGAGAGAGGGU [I7-M1] bind ([1]; label: 5' biotin)?
Answer: Result: binds more weakly

Question: Does AGUCCUCUCCUUUCCCUCCCUCCCA [I7-reverse] bind ([1]; label: 5' biotin)?
Answer: Result: no binding

Question: Does “UCCAGCCCAGAAUGGCCUUGCCAAGUCUUUCCCAAGCACCCAACU [I6-CM]” bind (hnRNP A1 (mouse); label: 5' biotin)?
Answer: Result: no binding

Question: Does “UCCAGCCCAGAAUGGCCUUGCCAAGUCUUUCCCAAGCACCCAACU [I6-CM]” bind (hnRNP A2B1 (mouse); label: 5' biotin)?
Answer: Result: no binding

Question: Does “UCCAGCCCAGAAUGGCCUUGCCAAGUCUUUCCCAAGCACCCAACU [I6-CM]” bind ([1]; blot described as hnRNP F/H, label: 5' biotin)?
Answer: Result: no binding

Question: Does “AGUUCCCUGCUUCCCAAAGACUUGGCAAGGCCAUUCUCCCCUGGA [I6-R (I6-reverse)]” bind (hnRNP A1 (mouse); label: 5' biotin)?
Answer: Result: no binding

Question: Does “AGUUCCCUGCUUCCCAAAGACUUGGCAAGGCCAUUCUCCCCUGGA [I6-R (I6-reverse)]” bind (hnRNP A2B1 (mouse); label: 5' biotin)?
Answer: Result: no binding

Question: Does “AGUUCCCUGCUUCCCAAAGACUUGGCAAGGCCAUUCUCCCCUGGA [I6-R (I6-reverse)]” bind ([1]; label: 5' biotin)?
Answer: Result: no binding

Question: Does “UCCAGGGGAGAAUGGCCUUGCCAAGUCUUUGGGAAGCAGGGAACU [I6-WT]” bind (hnRNP H1 (mouse); [2])?
Answer: Result: binds

Question: Does “UCCAGGGGAGAAUGGCCUUGCCAAGUCUUUGGGAAGCAGGGAACU [I6-WT]” bind (hnRNP A1 (mouse); [2])?
Answer: Result: binds

Question: Does “UCCAGGGGAGAAUGGCCUUGCCAAGUCUUUGGGAAGCAGGGAACU [I6-WT]” bind (hnRNP A2B1 (mouse); [2])?
Answer: Result: binds

Question: Does “UCCAGGGGAGAAUGGCCUUGCCAAGUCUUUGGGAAGCAGGGAACU [I6-WT]” bind [1, 2]?
Answer: Result: binds

Question: Does “UCCAGAAAAGAAUGGCCUUGCCAAGUCUUUGAGAAGCAGAGAACU [I6-M1M2]” bind (hnRNP A1 (mouse); [3])?
Answer: Result: binds

Question: Does “UCCAGAAAAGAAUGGCCUUGCCAAGUCUUUGAGAAGCAGAGAACU [I6-M1M2]” bind (hnRNP A2B1 (mouse); [3])?
Answer: Result: binds

Question: Does “UCCAGAAAAGAAUGGCCUUGCCAAGUCUUUGAGAAGCAGAGAACU [I6-M1M2]” bind [1, 2]?
Answer: Result: binds more weakly
